Data: paper PMC6637153

How the values were obtained:
[1] = target: T1, GST fusion protein of the third intracellular loop (ICL3, 205-369 residues) of α2B-adrenergic receptor (UniProt P19328); test: pull-down; GST fusion proteins tethered to glutathione resin incubated with total cell lysates of transfected HEK293 cells; 20 mM Tris-HCl pH 7.5, 1% NP-40, 140 mM NaCl, 1 mM MgCl2, 4 °C, 4-6 h; blot with anti-GFP or anti-myc; only the target purified
T1 sequence: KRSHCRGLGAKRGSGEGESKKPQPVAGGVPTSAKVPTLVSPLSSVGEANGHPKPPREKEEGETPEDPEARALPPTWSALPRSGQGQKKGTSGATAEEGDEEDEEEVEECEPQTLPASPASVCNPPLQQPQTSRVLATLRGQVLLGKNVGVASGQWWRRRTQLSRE

[2] = target: T2, GFP-tagged GGA1t (human (cDNA cloned from HEK293 cells)) (UniProt Q9UJY5); test: co-IP; HEK293 cells transfected with GFP-GGA1 or GFP-GGA1t; IP with anti-GFP antibodies; endogenous clathrin detected by blot with anti-clathrin antibodies
T2 sequence: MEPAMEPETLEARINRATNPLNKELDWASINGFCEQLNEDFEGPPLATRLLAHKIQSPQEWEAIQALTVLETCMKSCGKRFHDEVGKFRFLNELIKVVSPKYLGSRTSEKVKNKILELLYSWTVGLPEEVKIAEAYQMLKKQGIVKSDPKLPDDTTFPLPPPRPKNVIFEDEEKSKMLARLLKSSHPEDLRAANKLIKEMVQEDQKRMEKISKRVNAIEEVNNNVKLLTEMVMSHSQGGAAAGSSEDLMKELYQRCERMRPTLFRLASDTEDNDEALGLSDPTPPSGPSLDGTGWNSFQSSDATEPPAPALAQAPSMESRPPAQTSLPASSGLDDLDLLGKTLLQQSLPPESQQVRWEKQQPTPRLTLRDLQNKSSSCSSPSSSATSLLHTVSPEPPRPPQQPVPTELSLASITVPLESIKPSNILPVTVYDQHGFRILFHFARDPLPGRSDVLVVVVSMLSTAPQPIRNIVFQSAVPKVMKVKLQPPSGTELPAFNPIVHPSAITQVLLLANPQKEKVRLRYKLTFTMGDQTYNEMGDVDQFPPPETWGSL

GFP-tagged GGA1 = target: T3, GFP-tagged GGA1 (UniProt Q9UJY5); test: as above
T3 sequence: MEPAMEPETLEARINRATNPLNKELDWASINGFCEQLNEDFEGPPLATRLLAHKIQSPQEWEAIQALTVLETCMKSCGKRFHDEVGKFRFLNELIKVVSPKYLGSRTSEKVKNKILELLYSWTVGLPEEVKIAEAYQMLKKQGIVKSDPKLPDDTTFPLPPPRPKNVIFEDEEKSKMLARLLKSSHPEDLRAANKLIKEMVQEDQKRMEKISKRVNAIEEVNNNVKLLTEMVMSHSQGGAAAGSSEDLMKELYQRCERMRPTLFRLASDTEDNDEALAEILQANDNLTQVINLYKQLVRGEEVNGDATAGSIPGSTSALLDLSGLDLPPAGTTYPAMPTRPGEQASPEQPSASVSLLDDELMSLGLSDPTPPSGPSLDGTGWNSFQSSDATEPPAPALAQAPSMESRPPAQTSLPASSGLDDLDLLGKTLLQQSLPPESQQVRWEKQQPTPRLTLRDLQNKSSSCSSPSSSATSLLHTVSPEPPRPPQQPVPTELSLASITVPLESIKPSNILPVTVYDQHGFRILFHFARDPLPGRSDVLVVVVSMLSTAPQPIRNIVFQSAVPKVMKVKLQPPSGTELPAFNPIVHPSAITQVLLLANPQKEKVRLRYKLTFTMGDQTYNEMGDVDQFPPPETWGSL

binding [1] | binding [2] | binding (GFP-tagged GGA1) | Substance
no binding | – | – | GFP-tagged GGA1t hinge domain (domain or fragment)
– | no binding | binds | clathrin (endogenous) (human (endogenous in HEK293))

These are yes or no findings as the source states them, for the method shown. In cells and extracts the contact can be indirect. For part of these data: Binding calls can cover weak binding; strength is not graded here. Tags and fused reporters may be left off the sequences shown.
